The values below come from publication PMC7650656.

Results are given in words; binding and its absence hold for the method and conditions named. Binding seen in cells or lysates may run through a third protein. Binding can be weak; no strength is given. For some assays here: Sequences can lack the tags named with a protein.

For experiment [1], the target named is OsRLCK311-ΔN-Venus^N (rice (Oryza sativa)). Kind of experiment: split reporter; BiFC: Venus^N and SCFP^C fusions transiently expressed in Nicotiana benthamiana leaves, confocal microscopy two days after infiltration.
The target of experiment [2] is OsRLCK311FL-Venus^N (rice (Oryza sativa)). The experiment is described as above.
The target of experiment [3] is Full-length OsRLCK311-FL fused with GFP (rice (Oryza sativa)). As to the kind of experiment: co-IP; GFP and RFP fusions co-infiltrated in Nicotiana benthamiana leaves, lysate 2 days after infiltration, anti-GFP magnetic beads, blots with anti-GFP and anti-RFP.
Experiment [4] deals with OsRLCK311-ΔN fused with GFP (rice (Oryza sativa)). Described as above.

B1: OsPIP2;1-SCFP^C (protein, UniProt Q8H5N9 1-290)
chain: MGKDEVMESGGAAGEFAAKDYTDPPPAPLIDAAELGSWSLYRAVIAEFIATLLFLYITVATVIGYKHQTDASASGADAACGGVGVLGIAWAFGGMIFILVYCTAGISGGHINPAVTFGLFLARKVSLVRAILYIVAQCLGAICGVGLVKAFQSAYFNRYGGGANTLAAGYSKGTGLAAEIIGTFVLVYTVFSATDPKRNARDSHVPVLAPLPIGFAVFMVHLATIPITGTGINPARSIGAAVIFNNEKAWHNHWIFWVGPFVGAAIAAFYHQYILRAGAIKALGSFRSNA
On to B1, for which the binding result in experiment [1] and in experiment [2] was “binds” throughout.

B2: OsPIP2;1-RFP (protein, UniProt Q8H5N9 1-290)
chain: B1 chain
Take B2: the binding entry in experiment [3] and in experiment [4] was “binds” in each case.

B3: AtPIP2;1-RFP (protein, UniProt P43286 1-287)
chain: MAKDVEAVPGEGFQTRDYQDPPPAPFIDGAELKKWSFYRAVIAEFVATLLFLYITVLTVIGYKIQSDTDAGGVDCGGVGILGIAWAFGGMIFILVYCTAGISGGHINPAVTFGLFLARKVSLPRALLYIIAQCLGAICGVGFVKAFQSSYYTRYGGGANSLADGYSTGTGLAAEIIGTFVLVYTVFSATDPKRSARDSHVPVLAPLPIGFAVFMVHLATIPITGTGINPARSFGAAVIYNKSKPWDDHWIFWVGPFIGAAIAAFYHQFVLRASGSKSLGSFRSAANV
Take B3: the binding result in experiment [3] and in experiment [4] was “binds” each time.

B4: AtPIP2;1-SCFP^C (protein, UniProt P43286 1-287)
chain: B3 chain
Take B4: the binding result in experiment [1] and in experiment [2] was “binds” each time.
